Measured values published in paper PMC6802665.
Results are given in words; binding and its absence hold for the method and conditions named. In cells and extracts the contact can be indirect. Some results given as binding are weak or reduced against the parent protein; the word gives no strength.

The chains behind the UniProt entries cited, without tags or fusion partners.
UniProt P04792: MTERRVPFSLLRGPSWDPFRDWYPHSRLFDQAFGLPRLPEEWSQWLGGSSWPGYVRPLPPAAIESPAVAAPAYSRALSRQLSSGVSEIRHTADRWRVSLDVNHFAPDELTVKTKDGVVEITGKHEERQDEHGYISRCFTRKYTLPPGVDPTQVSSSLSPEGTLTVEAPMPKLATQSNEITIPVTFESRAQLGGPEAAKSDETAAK
UniProt P14602: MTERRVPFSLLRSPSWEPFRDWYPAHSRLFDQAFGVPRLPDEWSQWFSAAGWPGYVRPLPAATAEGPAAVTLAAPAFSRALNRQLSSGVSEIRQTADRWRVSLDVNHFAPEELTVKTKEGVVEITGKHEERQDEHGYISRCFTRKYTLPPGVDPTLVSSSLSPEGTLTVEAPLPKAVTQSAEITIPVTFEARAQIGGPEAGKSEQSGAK
UniProt P08047: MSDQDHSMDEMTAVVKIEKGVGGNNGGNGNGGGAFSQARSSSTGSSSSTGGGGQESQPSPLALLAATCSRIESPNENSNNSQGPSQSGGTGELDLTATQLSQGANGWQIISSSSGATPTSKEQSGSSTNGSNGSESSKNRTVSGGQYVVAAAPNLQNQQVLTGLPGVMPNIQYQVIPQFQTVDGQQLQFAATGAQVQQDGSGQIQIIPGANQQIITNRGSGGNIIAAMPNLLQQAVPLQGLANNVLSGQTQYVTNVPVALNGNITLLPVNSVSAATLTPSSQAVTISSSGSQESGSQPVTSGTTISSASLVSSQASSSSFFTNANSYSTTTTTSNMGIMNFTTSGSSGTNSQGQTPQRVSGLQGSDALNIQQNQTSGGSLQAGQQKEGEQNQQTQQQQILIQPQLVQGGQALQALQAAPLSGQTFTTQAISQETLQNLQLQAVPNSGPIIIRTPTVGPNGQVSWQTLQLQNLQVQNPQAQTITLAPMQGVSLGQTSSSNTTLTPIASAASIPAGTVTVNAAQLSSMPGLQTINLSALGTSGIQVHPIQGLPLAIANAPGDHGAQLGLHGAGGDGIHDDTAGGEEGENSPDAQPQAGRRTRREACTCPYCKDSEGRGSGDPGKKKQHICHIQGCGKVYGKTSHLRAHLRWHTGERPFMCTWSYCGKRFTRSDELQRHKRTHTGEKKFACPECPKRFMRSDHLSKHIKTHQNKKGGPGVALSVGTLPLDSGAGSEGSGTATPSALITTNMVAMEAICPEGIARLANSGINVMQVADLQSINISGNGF
UniProt Q9UER7: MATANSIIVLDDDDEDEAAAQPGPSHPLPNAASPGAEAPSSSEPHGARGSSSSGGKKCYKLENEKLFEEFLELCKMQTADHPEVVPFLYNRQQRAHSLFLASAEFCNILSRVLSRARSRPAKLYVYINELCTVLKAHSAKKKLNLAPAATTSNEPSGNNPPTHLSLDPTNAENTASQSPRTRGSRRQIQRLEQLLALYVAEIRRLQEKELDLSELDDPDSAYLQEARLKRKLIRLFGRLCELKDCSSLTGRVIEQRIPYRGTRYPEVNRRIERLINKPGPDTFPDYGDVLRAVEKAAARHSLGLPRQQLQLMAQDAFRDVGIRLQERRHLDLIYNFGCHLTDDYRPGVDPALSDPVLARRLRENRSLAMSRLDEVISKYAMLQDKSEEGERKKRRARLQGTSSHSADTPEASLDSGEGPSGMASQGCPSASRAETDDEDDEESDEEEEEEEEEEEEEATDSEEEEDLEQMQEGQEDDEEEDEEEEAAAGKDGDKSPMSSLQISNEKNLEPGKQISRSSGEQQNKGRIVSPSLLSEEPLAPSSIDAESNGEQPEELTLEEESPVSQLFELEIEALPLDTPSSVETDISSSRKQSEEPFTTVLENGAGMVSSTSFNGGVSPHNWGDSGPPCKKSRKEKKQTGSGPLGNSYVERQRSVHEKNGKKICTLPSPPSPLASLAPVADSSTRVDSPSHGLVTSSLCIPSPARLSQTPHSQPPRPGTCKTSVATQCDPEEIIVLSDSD
UniProt O35613: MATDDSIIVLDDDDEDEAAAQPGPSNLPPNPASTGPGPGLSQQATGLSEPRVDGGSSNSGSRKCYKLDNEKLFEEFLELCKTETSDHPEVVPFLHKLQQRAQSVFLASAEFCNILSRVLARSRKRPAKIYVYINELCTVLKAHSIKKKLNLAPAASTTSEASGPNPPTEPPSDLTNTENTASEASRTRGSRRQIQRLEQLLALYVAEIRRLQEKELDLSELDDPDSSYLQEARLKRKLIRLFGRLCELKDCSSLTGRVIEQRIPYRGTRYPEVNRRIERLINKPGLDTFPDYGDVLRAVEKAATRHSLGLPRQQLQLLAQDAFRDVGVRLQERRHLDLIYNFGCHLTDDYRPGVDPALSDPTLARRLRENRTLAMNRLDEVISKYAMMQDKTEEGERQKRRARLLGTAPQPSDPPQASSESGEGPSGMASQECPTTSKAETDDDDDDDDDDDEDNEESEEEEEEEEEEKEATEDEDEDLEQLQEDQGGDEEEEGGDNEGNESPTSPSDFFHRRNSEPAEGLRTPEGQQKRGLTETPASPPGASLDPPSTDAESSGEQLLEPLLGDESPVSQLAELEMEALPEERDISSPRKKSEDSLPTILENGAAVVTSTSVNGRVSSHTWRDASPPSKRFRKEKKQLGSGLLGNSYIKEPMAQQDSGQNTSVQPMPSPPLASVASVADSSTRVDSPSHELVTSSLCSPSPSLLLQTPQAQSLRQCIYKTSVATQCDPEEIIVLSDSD
UniProt P40763: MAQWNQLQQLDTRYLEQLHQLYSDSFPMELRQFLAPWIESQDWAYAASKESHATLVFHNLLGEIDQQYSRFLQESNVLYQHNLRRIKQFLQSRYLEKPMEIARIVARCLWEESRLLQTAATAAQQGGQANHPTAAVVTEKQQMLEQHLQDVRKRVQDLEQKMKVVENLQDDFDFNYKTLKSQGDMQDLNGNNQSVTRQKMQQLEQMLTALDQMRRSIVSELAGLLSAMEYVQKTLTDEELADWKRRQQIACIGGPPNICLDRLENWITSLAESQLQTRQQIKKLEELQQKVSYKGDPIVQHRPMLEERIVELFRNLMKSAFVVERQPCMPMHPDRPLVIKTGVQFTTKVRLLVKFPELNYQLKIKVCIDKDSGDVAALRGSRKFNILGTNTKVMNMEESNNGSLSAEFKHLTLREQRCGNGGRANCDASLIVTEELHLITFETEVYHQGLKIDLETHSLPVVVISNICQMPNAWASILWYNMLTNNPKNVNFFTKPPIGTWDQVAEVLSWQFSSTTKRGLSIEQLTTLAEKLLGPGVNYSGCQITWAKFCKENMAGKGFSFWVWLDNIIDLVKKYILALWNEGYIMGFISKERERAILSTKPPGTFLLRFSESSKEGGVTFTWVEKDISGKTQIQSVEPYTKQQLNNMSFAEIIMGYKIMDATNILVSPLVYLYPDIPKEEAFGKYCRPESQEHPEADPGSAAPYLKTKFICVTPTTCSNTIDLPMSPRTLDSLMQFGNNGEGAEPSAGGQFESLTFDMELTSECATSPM
UniProt P42227: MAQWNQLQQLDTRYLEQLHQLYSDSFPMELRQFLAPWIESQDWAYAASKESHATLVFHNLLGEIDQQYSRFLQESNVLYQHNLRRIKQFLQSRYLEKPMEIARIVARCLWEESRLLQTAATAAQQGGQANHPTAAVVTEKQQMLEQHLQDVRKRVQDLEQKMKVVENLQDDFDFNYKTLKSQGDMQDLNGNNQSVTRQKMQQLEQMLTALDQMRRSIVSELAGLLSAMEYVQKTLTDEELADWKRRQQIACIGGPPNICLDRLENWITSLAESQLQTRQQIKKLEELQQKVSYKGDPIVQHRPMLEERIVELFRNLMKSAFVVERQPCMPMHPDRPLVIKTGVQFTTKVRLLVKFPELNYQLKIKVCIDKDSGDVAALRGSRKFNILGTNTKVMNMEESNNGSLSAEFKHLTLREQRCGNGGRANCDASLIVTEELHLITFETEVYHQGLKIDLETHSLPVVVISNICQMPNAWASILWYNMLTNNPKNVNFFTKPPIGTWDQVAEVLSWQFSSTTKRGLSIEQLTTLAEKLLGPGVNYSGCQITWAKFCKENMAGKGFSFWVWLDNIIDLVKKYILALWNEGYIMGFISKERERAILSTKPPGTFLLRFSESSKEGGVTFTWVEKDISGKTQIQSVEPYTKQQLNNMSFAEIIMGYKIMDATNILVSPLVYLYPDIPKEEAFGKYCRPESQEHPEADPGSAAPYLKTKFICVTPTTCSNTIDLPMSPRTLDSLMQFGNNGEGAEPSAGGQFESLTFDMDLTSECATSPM

Columns and labels:
[1] = target: heat shock protein 27 (HSP27), human (human (endogenous in A375 and MiaPaCa-2)) (UniProt P04792); assay: co-IP
[2] = target: heat shock protein 25 (HSP25), mouse (mouse) (UniProt P14602); assay: co-IP

Substance | binding [1] | binding [2]
Sp1 transcription factor, human (from UniProt P08047 1-785) | binds | –
death domain-associated protein (Daxx), human (from UniProt Q9UER7 1-740) | binds | –
death domain-associated protein (Daxx), mouse (from UniProt O35613 1-739) | – | no binding
signal transducer and activator of transcription 3 (stat3), human (from UniProt P40763 1-770) | binds | –
signal transducer and activator of transcription 3 (stat3), mouse (from UniProt P42227 1-770) | – | binds
